This is an account of results in paper PMC5700927, “Heme enables proper positioning of Drosha and DGCR8 on primary microRNAs” (Nature Communications, 2017).

The target in the experiment is DGCR8^ΔHBR (residues 489-751), co-expressed with Drosha (human) (UniProt Q8WYQ5). Description: SEC-MALS; purified co-expressed Drosha/DGCR8 complex; Superdex 200 Increase 10/300; 20 mM Tris pH 8.0, 750 mM NaCl, 1 mM TCEP, 10% glycerol; both purified. (In general: SEC sorts molecules by how far they enter the pores of the column.)

No constants are given. Whether binding was seen depends on the method and setting.

B1: DGCR8^ΔHBR (residues 489-751), co-expressed with Drosha (domain or fragment, human, UniProt Q8WYQ5 489-751, looked up)
chain: LITLSVQDAPTKKEFVINPNGKSEVCILHEYMQRVLKVRPVYNFFECENPSEPFGASVTIDGVTYGSGTASSKKLAKNKAARATLEILIPDFVKQTSEEKPKDSEELEYFNHISIEDSRVYELTSKAGLLSPYQILHECLKRNHGMGDTSIKFEVVPGKNQKSEYVMACGKHTVRGWCKNKRVGKQLASQKILQLLHPHVKNWGSLLRMYGRESSKMVKQETSDKSVIELQQYAKKNKPNLHILSKLQEEMKRLAEEREETRK
notes: DGCR8, human, residues 489-751 (tandem dsRBDs and C-terminal tail, no HBR); One copy per Drosha in MP^ΔHBR; also called DGCR8 lacking the HBR; the DGCR8 chain of MP^ΔHBR
Take B1: the binding result is “no binding”.
